The text below walks through data of PMC10164552, “PBRM1 bromodomains associate with RNA to facilitate chromatin association”.

Chains of the proteins cited; added tags and fusions are not shown. Residues count along the entry.
UniProt Q86U86, 178-291: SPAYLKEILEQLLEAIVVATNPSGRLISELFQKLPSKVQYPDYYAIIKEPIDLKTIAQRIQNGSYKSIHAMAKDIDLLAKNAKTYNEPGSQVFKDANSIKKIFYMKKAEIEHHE
UniProt Q86U86, 496-637: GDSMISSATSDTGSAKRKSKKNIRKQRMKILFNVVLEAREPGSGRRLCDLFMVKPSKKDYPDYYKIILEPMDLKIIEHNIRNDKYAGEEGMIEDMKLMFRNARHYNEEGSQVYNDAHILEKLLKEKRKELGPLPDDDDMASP

For at least one entry, the source does not settle the construct or the ends of the probe. The comparison behind a weaker result is the experiment's own reference, which may not be listed here. At least one verdict was read from the data and is not stated in words by the source. Where only a bound is given, the exact number is not on record here.

One series concerns the target PBRM1 BD2 (UniProt Q86U86). As to the kind of experiment: NMR titration (1H-15N HSQC). Conditions: NMR: 0.1 mM 15N-BD, 50 mM K phosphate pH 7.0, 50 mM KCl, 2 mM DTT, 2 mM EDTA, 7% D2O, 25 C, recombinant protein, residues 178-291, protein details: His tag, TEV-cleaved.
Another series addresses PBRM1 BD4 (UniProt Q86U86). As to the kind of experiment: NMR titration (1H-15N HSQC). Conditions: NMR: 0.1 mM 15N-BD, 50 mM K phosphate pH 7.0, 50 mM KCl, 2 mM DTT, 2 mM EDTA, 7% D2O, 25 C; recombinant protein; residues 496-637; protein details: His tag, TEV-cleaved.

With ACACACACACACA [ssRNAII], the binding result in the series with PBRM1 BD2 and with PBRM1 BD4 was “binds more weakly” throughout.
Regarding “GGCAUCGUGC / GCACGAUGCC [dsRNAIV (no loop)]”, in the series with PBRM1 BD2 (limit from legend: Kd below 1/10 of protein concentration (0.1 mM)), the Kd was below 10 µM.

A word on the Kd: it is the concentration at which binding is half-saturated.
